Assay results published in PubChem BioAssay AID1347426 (Functional Genomics Laboratory (NCATS/FGL), 2020).
Out of some 31,000 sequences screened, about 1,400 (4.5%) were called active.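 The calls were made as follows: active = median seed-adjusted z-score above 1 or below -1; inactive = the rest.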 This is one part of the list.

Experiment: Novel Modifiers of Survival Motor Neuron (SMN) Protein: Gene Identification via Genome-wide siRNA Screen;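 also: luminescence tracks full-length SMN protein made from the SMN2 reporter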
Settings: HEK293T SMN2-luciferase reporter, siRNA knockdown, 72 h; actives lie on both sides
Procedure, shortened: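 siRNA screen, 10418 genes ×3 siRNAs; 1 pmol/well, lipid reverse transfection into HEK293T SMN2-luc reporter line. 72 h, 37 °C, 5% CO2; ONE-Glo readout. Data: neg-ctrl normalized, log10, MAD; hit = MAD >1.0 or < -1.0.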

Row | Sequence | median seed-adjusted z-score
1 | CCCGGGUCAUCAACUCUUATT against GGA3 | inactive: -0.239
2 | GGAAGUACGUGGUAUGCAATT against PRL | inactive: 0
3 | GCAGUGUCCUGAGUACAGATT against CHFR | inactive: -0.673
4 | UGAUCAUGCUGCUAGGCAATT against RAB37 | inactive: 0.0678
5 | GGCUAAGCCUCAAAAUAAATT against ABCF1 | inactive: -0.221
6 | CAGAGUGUAUUCGACUUUATT against MED13 | inactive: -0.469
7 | GCAAGACAGCUGUCAAGAATT against FIGLA | inactive: -0.064
8 | GCUACUAUGCUGAAGAUCATT against CDH18 | inactive: 0.21
9 | CUUCAUAAUUGAUCCACGATT against PCDH18 | inactive: -0.132
10 | GCGACACCCAGAACAAAGATT against DPEP1 | inactive: -0.886
11 | GCGACGCUGGGUCUACUAUTT against S1PR4 | inactive: 0.0951
12 | GAUUCAAUCAUGUAAGCUUTT against RALGPS2 | inactive: 0.0124
13 | AAACUUGCCUGAGUACAAATT against KCNH3 | inactive: -0.509
14 | GAGGAAAAACUGUUCCGCATT against HOMER3 | inactive: 0.148
15 | GGACUAUUACAAAUCAAGATT against FLT3 | inactive: 0.418
16 | CAGAAAUUCCGGGUAGAUATT against FOSL2 | inactive: -0.372
17 | CAACAUACAUCUUACCCAUTT against ZFAND1 | inactive: -0.272
18 | GAAUUCACAUCGUGAUGAATT against LSM5 | inactive: -0.661
19 | GGAGCAGCAAUAUCCAGAUTT against PRDM9 | inactive: -0.15
20 | CGUCCUAAUCUCAAUCUUATT against CD200 | inactive: -0.0135
21 | GACAUACAAUGUGGACAGATT against ALPI | inactive: 0
22 | GCUAAGAAGCGAUCGCUGATT against SLC22A14 | inactive: 0.215

Row | Sequence | median seed-adjusted z-score
23 | GCCUAACAUCUUCUGGAAATT against SLC6A5 | inactive: -0.204
24 | CAACCUCAGAUGACAUUAATT against DNAJC5 | inactive: -0.0844
25 | GCACAGUACUGGUCAGUAUTT against NUP107 | inactive: -0.692
26 | CGAAGUUUCGAUUUGAUUATT against B3GNT6 | inactive: 0.00618
27 | GAACUAUAAGAAUCUAGUUTT against ZNF559 | inactive: -0.0208
28 | GCAGAAGUGUUUACAAGCUTT against RGN | inactive: 0.132
29 | GCUUUUCGGGAAUCACGAATT against LOC81691 | inactive: -0.285
30 | GGAUGUAAGCCUGACCAUATT against ZNF784 | inactive: 0.291
31 | CCCACAAGACGGUUCAGGATT against CLDN22 | inactive: 0
32 | GAGUCACAUUUGAGGUUCATT against CSF2RA | inactive: -0.227
33 | CGGUUGCGUUUUAAUCGGATT against SDCCAG10 | inactive: -0.465
34 | CCACGUGACUAAUCCGAAATT against SLAMF6 | inactive: 0.0115
35 | GAAGAUCAGUACUACAGCATT against TTC6 | inactive: 0.234
36 | GACUUGUCGUCUUUCCAAUTT against ZFYVE21 | inactive: -0.186
37 | GAGCCUGACUGAAACGAUUTT against CDR2 | inactive: -0.37
38 | CAUAGUAAAUAGAGGGAUATT against PNPLA8 | inactive: 0.0576
39 | AGAAGAUCCUGACCUUUAATT against MAPK4 | inactive: 0.235
40 | CAAGCGAGUUUAUUCCUAATT against PAN3 | inactive: 0.349
41 | GCGAAACCCUAUCCUCAAATT against ARHGEF11 | inactive: -0.525
42 | GCAUGACCCUCACCUCUAUTT against TGFBI | inactive: 0
43 | GCAUUUACUCGCUCUUCAATT against KCNK12 | active: 1.04
44 | GGGAUAAAUUUGACGUGGATT against SPAG1 | inactive: 0.413

Laid out differently: results already given.
Row	Sequence	median seed-adjusted z-score
13	AAACUUGCCUGAGUACAAATT against KCNH3	inactive: -0.509
14	GAGGAAAAACUGUUCCGCATT against HOMER3	inactive: 0.148

Continuation.

Row | Sequence | median seed-adjusted z-score
45 | CGAGGAAUGUGAUAAGGGATT against ZFP112 | inactive: -0.449
46 | GAAAGAAACAUCACCGUGATT against RNF150 | inactive: 0.478
47 | CGAUAAGAUCAAUUCGGAATT against MTMR10 | inactive: 0.144
48 | CGUUAUGUACGUGAUCUAATT against TPTE | inactive: 0.213
49 | GCAUUGUUUCUAAGAACUUTT against HSPB8 | inactive: 0.207
50 | CGCAGGUACUUGGUAAUCATT against ZC3H7A | inactive: 0.208
51 | CAAUGACCCUGCUAUACCATT against ALOX15B | inactive: 0.156
52 | CCAACAUCUCAGCCGUGAATT against DAPK3 | inactive: -0.105
53 | GGCCUCUGUUCAAUACUGATT against POLD3 | inactive: -0.161
54 | GUCUCUCAGCUUACGUAUATT against SNX25 | inactive: -0.26
55 | CCACCUCACAGAUCGCCUATT against SOX10 | inactive: -0.255
56 | GCACAAGUAAAAUAGACAATT against GABRA4 | inactive: 0.549
57 | GGACCUAUGAGCAACGAAATT against ATP1A4 | inactive: 0.116
58 | GGAUGACCAGAAUAGCGAATT against ALKBH1 | inactive: -0.087
59 | GGACUAAAACUUUAAACUATT against POU4F2 | active: 1.46
60 | CCAUUGAAGUGGUUAAGAATT against CCNE2 | inactive: 0.801
61 | GGCUACUUUCCCAAUAUUUTT against LBX2 | inactive: 0.538
62 | CGACUUUGCAGUGCCGAAATT against ATP10A | inactive: -0.435
63 | CAGCCUCAGUGGAUUCAGATT against SPRYD5 | inactive: 0.151
64 | GGCUGGUUCUGACUCACUUTT against ELAC1 | inactive: 0.967
65 | GGACGUGGACCAUUACUGUTT against LITAF | inactive: 0.0771
66 | CAGUUGUGGUAAAAUUAAATT against LSM6 | inactive: -0.0501

Fetched one by one from the list above (4):
Row | Sequence | median seed-adjusted z-score
56 | GCACAAGUAAAAUAGACAATT against GABRA4 | inactive: 0.549
49 | GCAUUGUUUCUAAGAACUUTT against HSPB8 | inactive: 0.207
58 | GGAUGACCAGAAUAGCGAATT against ALKBH1 | inactive: -0.087
65 | GGACGUGGACCAUUACUGUTT against LITAF | inactive: 0.0771

(cont.)

Row | Sequence | median seed-adjusted z-score
67 | GGGUUGGUGUGAUUGGAGUTT against LOC647743 | inactive: -0.203
68 | AGCUGGGCUUUAUCGUGGATT against P2RX2 | inactive: 0.0454
69 | CAGUAUCUAUUCACAAUGATT against TRNT1 | inactive: 0.142
70 | GAAGUGACGAGAAUUUACATT against PSMAL | inactive: 0.525
71 | CAAACGAGAAUAUGAGAAATT against UBE2B | inactive: 0.333
72 | GGAGGAAAUUCUCAAUGCUTT against LILRB5 | inactive: 0.834
73 | GGACAAUUGGUUGCAGACATT against EPHB6 | inactive: -0.0275
74 | AGGACAAAAGGAACCCGGATT against GIPC1 | inactive: 0
75 | CCACUAGAAUUGAUUAGAATT against SLC25A40 | inactive: 0.414
76 | GGAUACUAAUGAUUCCUGATT against KCNS1 | inactive: -0.167
77 | GUACUACUUCUACUGGAAATT against TNFAIP6 | inactive: 0
78 | ACAUCGCCCUCAAACGGGATT against ACTL7A | active: 1.1
79 | GGUGGAGUAUACUGAAGAATT against TPH2 | inactive: 0.275
80 | GGUGCAAGCAGGUUACGAATT against BLVRB | inactive: 0.0133
81 | CGAUUUUGAUUAUCCCUAATT against HIVEP2 | inactive: 0.294
82 | CAAUAGGUUUUAUCUACUATT against ZNF121 | inactive: 0.0687
83 | GAUCUGAUGUAGACCAAGATT against RNF14 | inactive: 0.296
84 | CCAGGCUAUCUUUCCGAUATT against PTPN3 | inactive: -0.535
85 | GGCUGGUUGUUGAUAGCAUTT against KCNH1 | inactive: -0.0859
86 | GGAGUAAUGAGAUAGUACATT against ARAP3 | inactive: -0.00876
87 | GCGGGAACAUACAAUGUAATT against INPP5B | inactive: 0
88 | GCAACAGUAUUUCGGUAUATT against CHEK1 | active: -5.1

Row | Sequence | median seed-adjusted z-score
89 | GGAGUAAACCUCACUGACATT against TMPRSS5 | active: 1.25
90 | CAUGAAUCGUUCCAACAAATT against GTF2H3 | inactive: 0.356
91 | CAACUAUAGUGCUCCCAGUTT against ZFP36L1 | inactive: -0.933
92 | GGACAUUCUUAAACGACUUTT against DIAPH1 | inactive: 0.145
93 | GGGAGUCUUUCUUCGGGAATT against ABCG1 | inactive: -0.609
94 | GAAAUACGCAGGAAGGAAATT against TMPRSS9 | inactive: 0.106
95 | CGCCCUUGGUUUUAGCAGATT against ABO | inactive: 0
96 | GGACAAGAUUCACCAACAATT against GIP | inactive: 0
97 | GCUACGAUAUUUUCUUAUUTT against TRDMT1 | inactive: 0
98 | GACGAUGAAUGAAAAGGCATT against NRBP1 | active: -1.13
99 | CCUGCUAUGUCUUCGGUUATT against MED13 | inactive: -0.469
100 | GACUUUGCCUUGAUUCACATT against PRPS1 | inactive: 0.034
101 | CAACAGCGAUUGGAAUGGATT against UGDH | inactive: 0.674
102 | CCUUUAUGCCUGAUCCUCATT against SULT1C3 | inactive: -0.731
103 | GCACCUAGAGGUUACCAAATT against RUFY2 | inactive: 0
104 | GCUGAACUCUUGAGCCUAATT against TRIM27 | inactive: -0.378
105 | GCCUUGACCCUGAGUGUAATT against CASZ1 | inactive: 0.263
106 | ACCAAGUACGCAAACUUUUTT against ST3GAL3 | inactive: -0.133
107 | GCAUUCAUCCUGUUAGUUUTT against RAET1E | inactive: -0.616
